These are yes or no findings as the source states them, for the method shown. For part of these data: In cells and extracts the contact can be indirect. For part of these data: Binding calls can cover weak binding; strength is not graded here. Sequences can lack the tags named with a protein.

For test [1], the target named is T1, PTST-TAP, Arabidopsis PTST with a C-terminal TAP tag containing c-Myc epitopes (Arabidopsis thaliana) (UniProt Q94AX2).
T1 sequence: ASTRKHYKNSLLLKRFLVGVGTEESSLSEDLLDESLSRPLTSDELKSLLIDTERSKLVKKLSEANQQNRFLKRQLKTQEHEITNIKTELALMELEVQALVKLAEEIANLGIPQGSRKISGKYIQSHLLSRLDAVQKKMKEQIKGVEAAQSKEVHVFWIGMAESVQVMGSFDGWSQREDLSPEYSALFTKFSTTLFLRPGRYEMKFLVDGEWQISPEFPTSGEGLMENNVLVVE
Briefly: co-IP; PTST-TAP (bait) and GBSS-CFP-HA (prey) transiently co-expressed in tobacco leaves; immunoprecipitated from extracted soluble proteins with anti-c-Myc beads; blots with anti-Myc and anti-HA.

The target in test [2] is GBSS-His6 K441E/E452K variant (Arabidopsis thaliana). Briefly: pull-down; GBSS-His6 recovered on Ni2+-NTA resin; 1 ug of each purified recombinant protein, 60 min at 20°C, 50 mM Tris-HCl pH 7.5, 300 mM NaCl, 10 mM imidazole, 0.1% BSA; eluted with 250 mM imidazole; immunoblot with anti-His and anti-GST; both purified. On the technique in general: A western blot detects proteins with antibodies after separation by electrophoresis.

Test [3] deals with GBSS-His6 E452K variant (Arabidopsis thaliana). The description is as above.

For the molecule “GBSS-CFP-HA with the charge-shift mutation at Glu452 (Arabidopsis thaliana) (enzyme)”, in test [1], the binding result is reported as “binds weakly”.

B1: GST-PTST, Arabidopsis PROTEIN … TO STARCH lacking the chloroplast transit peptide (protein, UniProt Q94AX2 45-277)
chain: T1 sequence
With B1, the binding entry in test [2] and in test [3] was “no binding (tested: 1 μg each)” in each case.

The values above are taken from PMC4339375.
